The test addresses ACLY-K978R stably expressed in HCT8/shACLY cells (UniProt P53396). Description: affinity purification with mass spectrometry; anti-Flag magnetic beads IP from cells expressing Flag-ACLY or Flag-ACLY-K978R (methods: HCT8/shACLY stable cells; legend: HEK293T transfected), SDS-PAGE, LC-MS/MS.

Amino acid sequences for entries named in this document (tags omitted). A change or cut given only in a name is not applied to a line headed by its entry.
UniProt P53396: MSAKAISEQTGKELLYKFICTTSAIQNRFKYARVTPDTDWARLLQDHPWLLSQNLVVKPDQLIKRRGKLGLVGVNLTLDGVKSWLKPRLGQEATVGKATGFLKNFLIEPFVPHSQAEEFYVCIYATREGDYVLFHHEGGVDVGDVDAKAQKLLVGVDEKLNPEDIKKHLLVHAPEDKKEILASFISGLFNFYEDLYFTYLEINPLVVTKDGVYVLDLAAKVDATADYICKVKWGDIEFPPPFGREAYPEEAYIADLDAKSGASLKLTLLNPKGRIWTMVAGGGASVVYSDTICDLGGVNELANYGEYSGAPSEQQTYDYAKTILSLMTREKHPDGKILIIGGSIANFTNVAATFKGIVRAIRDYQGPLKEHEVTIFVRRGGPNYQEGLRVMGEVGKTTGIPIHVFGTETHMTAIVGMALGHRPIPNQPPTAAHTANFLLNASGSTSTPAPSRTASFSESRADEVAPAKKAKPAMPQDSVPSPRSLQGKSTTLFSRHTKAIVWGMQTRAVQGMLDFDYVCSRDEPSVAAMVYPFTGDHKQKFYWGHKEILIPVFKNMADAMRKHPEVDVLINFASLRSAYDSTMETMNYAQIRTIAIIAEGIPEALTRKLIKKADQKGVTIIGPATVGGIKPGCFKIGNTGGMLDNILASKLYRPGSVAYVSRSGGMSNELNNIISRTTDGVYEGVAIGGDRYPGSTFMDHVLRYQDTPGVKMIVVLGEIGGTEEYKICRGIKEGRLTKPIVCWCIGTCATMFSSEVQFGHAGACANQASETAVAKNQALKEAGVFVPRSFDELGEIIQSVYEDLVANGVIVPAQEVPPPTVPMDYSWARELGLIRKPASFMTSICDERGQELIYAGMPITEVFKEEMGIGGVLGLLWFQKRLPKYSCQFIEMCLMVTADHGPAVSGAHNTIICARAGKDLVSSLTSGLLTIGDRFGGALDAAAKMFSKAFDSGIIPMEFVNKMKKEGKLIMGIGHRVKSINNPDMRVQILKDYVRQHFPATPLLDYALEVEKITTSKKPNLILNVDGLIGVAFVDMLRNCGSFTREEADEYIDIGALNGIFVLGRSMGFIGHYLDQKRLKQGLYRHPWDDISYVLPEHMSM

No constants are given. Whether binding was seen depends on the method and setting. In cells and extracts the contact can be indirect. A yes stands for co-enrichment or nearness to the bait. Other partners may have been found.

B1: endogenous RNA-binding protein 15 (RBM15) (protein, UniProt Q96T37 1-977)
chain: MRTAGRDPVPRRSPRWRRAVPLCETSAGRRVTQLRGDDLRRPATMKGKERSPVKAKRSRGGEDSTSRGERSKKLGGSGGSNGSSSGKTDSGGGSRRSLHLDKSSSRGGSREYDTGGGSSSSRLHSYSSPSTKNSSGGGESRSSSRGGGGESRSSGAASSAPGGGDGAEYKTLKISELGSQLSDEAVEDGLFHEFKRFGDVSVKISHLSGSGSGDERVAFVNFRRPEDARAAKHARGRLVLYDRPLKIEAVYVSRRRSRSPLDKDTYPPSASVVGASVGGHRHPPGGGGGQRSLSPGGAALGYRDYRLQQLALGRLPPPPPPPLPRDLERERDYPFYERVRPAYSLEPRVGAGAGAAPFREVDEISPEDDQRANRTLFLGNLDITVTESDLRRAFDRFGVITEVDIKRPSRGQTSTYGFLKFENLDMSHRAKLAMSGKIIIRNPIKIGYGKATPTTRLWVGGLGPWVPLAALAREFDRFGTIRTIDYRKGDSWAYIQYESLDAAHAAWTHMRGFPLGGPDRRLRVDFADTEHRYQQQYLQPLPLTHYELVTDAFGHRAPDPLRGARDRTPPLLYRDRDRDLYPDSDWVPPPPPVRERSTRTAATSVPAYEPLDSLDRRRDGWSLDRDRGDRDLPSSRDQPRKRRLPEESGGRHLDRSPESDRPRKRHCAPSPDRSPELSSSRDRYNSDNDRSSRLLLERPSPIRDRRGSLEKSQGDKRDRKNSASAERDRKHRTTAPTEGKSPLKKEDRSDGSAPSTSTASSKLKSPSQKQDGGTAPVASASPKLCLAWQGMLLLKNSNFPSNMHLLQGDLQVASSLLVEGSTGGKVAQLKITQRLRLDQPKLDEVTRRIKVAGPNGYAILLAVPGSSDSRSSSSSAASDTATSTQRPLRNLVSYLKQKQAAGVISLPVGGNKDKENTGVLHAFPPCEFSQQFLDSPAKALAKSEEDYLVMIIVRGFGFQIGVRYENKKRENLALTLL
On to B1, for which the binding result is listed as “binds”.

Values taken from paper PMC12713065.
